The record followed here is the supplement of paper PMC7889204.

The structures appear in SMILES notation. The list shows a part of the results. Most values come without repeats; read them as rough.

The subject of the assay is C6. Nature of the assay: cell mass (Coomassie absorbance) after combination of library compound with HMBA, relative to vehicle control (fraction); higher = more remaining cells (less growth inhibition).
In the case of `N#CC1(c2ccc(NC(=O)c3cccnc3NCc3ccncc3)cc2)CCCC1` [Apatinib] + CC(=O)NCCCCCCNC(C)=O [hexamethylene bisacetamide], the cell mass was found to be 0.989.

As for `COc1ccc(-c2ccc3c(N4CCOC[C@@H]4C)nc(N4CCOC[C@@H]4C)nc3n2)cc1CO` + CC(=O)NCCCCCCNC(C)=O [hexamethylene bisacetamide], the cell mass is 0.723.

As for `CCc1cccc2c3c([nH]c12)[C@](CC)(CC(=O)O)OCC3` [Etodolac(Lodine)] + CC(=O)NCCCCCCNC(C)=O [hexamethylene bisacetamide], the cell mass came to 0.511.

Take `C#Cc1cccc(Nc2ncnc3cc(OCCOC)c(OCCO)cc23)c1` + CC(=O)NCCCCCCNC(C)=O [hexamethylene bisacetamide]: the cell mass stood at 0.834.

In the case of `CCc1cccc(CC)c1NC(=O)N1Cc2[nH]nc(NC(=O)c3ccc(N4CCN(C)CC4)cc3)c2C1` + CC(=O)NCCCCCCNC(C)=O [hexamethylene bisacetamide], the cell mass is 0.617.

Regarding `COc1c(C)cnc(Cn2cnc3c(Cl)nc(N)nc32)c1C` + CC(=O)NCCCCCCNC(C)=O [hexamethylene bisacetamide], the cell mass was found to be 0.529.

As to `CN(C)Cc1ccc(-c2nc3cccc4c3n2CCNC4=O)cc1` + CC(=O)NCCCCCCNC(C)=O [hexamethylene bisacetamide], the cell mass was determined as 0.489.

`c1cncc(CN2CCC(n3ncc4c(N5CCOCC5)nc(-c5ccc6[nH]ccc6c5)nc43)CC2)c1` + CC(=O)NCCCCCCNC(C)=O [hexamethylene bisacetamide]: the cell mass came to 0.5.

In the case of `O=C(NOCC(O)CO)c1cc(Br)c(F)c(F)c1Nc1ccc(I)cc1F` (stereo not given) + CC(=O)NCCCCCCNC(C)=O [hexamethylene bisacetamide], the cell mass was 0.728.

`O=C(O)CC[C@H]1CC[C@@](c2cc(F)ccc2F)(S(=O)(=O)c2ccc(Cl)cc2)CC1` + CC(=O)NCCCCCCNC(C)=O [hexamethylene bisacetamide]: the cell mass amounted to 0.592.

With `CC(C)(C)c1cc(NC(=O)Nc2ccc(-c3cn4c(n3)sc3cc(OCCN5CCOCC5)ccc34)cc2)no1` + CC(=O)NCCCCCCNC(C)=O [hexamethylene bisacetamide], the cell mass is 0.758.

`COc1ccc2c(c1)c(CC(=O)O)c(C)n2C(=O)c1ccc(Cl)cc1` [Indomethacin] + CC(=O)NCCCCCCNC(C)=O [hexamethylene bisacetamide]: the cell mass was found to be 0.583.

As for `Nc1ccccc1NC(=O)c1ccc(CNc2nccc(-c3cccnc3)n2)cc1` [MGCD0103(Mocetinostat)] + CC(=O)NCCCCCCNC(C)=O [hexamethylene bisacetamide], the cell mass was found to be 0.343.

In the case of `CCN1CCN(Cc2ccc(-c3cc4c(N[C@H](C)c5ccccc5)ncnc4[nH]3)cc2)CC1` + CC(=O)NCCCCCCNC(C)=O [hexamethylene bisacetamide], the cell mass is 0.715.

Regarding `Clc1ccc(C2(c3ccc(-c4cn[nH]c4)cc3)CCNCC2)cc1` + CC(=O)NCCCCCCNC(C)=O [hexamethylene bisacetamide], the cell mass is 0.633.

With `CN(C)CCN1C(=O)c2cccc3cc(N)cc(c23)C1=O` [Amonafide] + CC(=O)NCCCCCCNC(C)=O [hexamethylene bisacetamide], the cell mass came out at 0.524.

For `CC(C)(C)c1cc(C(C)(C)C)c(NC(=O)c2c[nH]c3ccccc3c2=O)cc1O` + CC(=O)NCCCCCCNC(C)=O [hexamethylene bisacetamide], the cell mass was 0.598.

Consider `Nc1cccc2c1C(=O)N(C1CCC(=O)NC1=O)C2=O` (stereo not given) [Pomalidomide] + CC(=O)NCCCCCCNC(C)=O [hexamethylene bisacetamide], for which the cell mass is 0.493.

Regarding `CC[C@H](Nc1ncnc2[nH]cnc12)c1nc2cccc(F)c2c(=O)n1-c1ccccc1` + CC(=O)NCCCCCCNC(C)=O [hexamethylene bisacetamide], the cell mass is 0.484.

On to `Cc1ccc(-c2cc(C(F)(F)F)nn2-c2ccc(S(N)(=O)=O)cc2)cc1` [Celecoxib] + CC(=O)NCCCCCCNC(C)=O [hexamethylene bisacetamide], for which the cell mass worked out at 0.351.

Regarding `Cc1[nH]nc2ccc(-c3cncc(OC[C@@H](N)Cc4ccccc4)c3)cc12` + CC(=O)NCCCCCCNC(C)=O [hexamethylene bisacetamide], the cell mass was 0.519.

Turning to `Cc1cc(C(C)Nc2ccccc2)c2nc(N3CCOCC3)cc(=O)n2c1` (stereo not given) + CC(=O)NCCCCCCNC(C)=O [hexamethylene bisacetamide], the cell mass is 0.641.

On to `CCN(CC)Cc1ccc2cc(COC(=O)Nc3ccc(C(=O)NO)cc3)ccc2c1` + CC(=O)NCCCCCCNC(C)=O [hexamethylene bisacetamide], for which the cell mass worked out at 0.349.

Turning to `CC(C)(C)c1[nH]cnc1/C=c1\[nH]c(=O)/c(=C/c2ccccc2)[nH]c1=O` + CC(=O)NCCCCCCNC(C)=O [hexamethylene bisacetamide], the cell mass stood at 0.272.

Take `NC1(Cc2ccc(Cl)cc2)CCN(c2ncnc3[nH]ccc23)CC1` + CC(=O)NCCCCCCNC(C)=O [hexamethylene bisacetamide]: the cell mass stood at 0.343.

Consider `Cc1cc(C(=O)NOCCO)c(Nc2ccc(I)cc2F)n(C)c1=O` + CC(=O)NCCCCCCNC(C)=O [hexamethylene bisacetamide], for which the cell mass was determined as 0.27.

For `FC(F)(F)c1ccc(Nc2nc3ccc(Oc4ccnc(-c5ncc(C(F)(F)F)[nH]5)c4)cc3[nH]2)cc1` [Raf265 derivative] + CC(=O)NCCCCCCNC(C)=O [hexamethylene bisacetamide], the cell mass was 0.573.

For the molecule `Cc1cnc(Nc2ccc(N3CCN(C)CC3)cc2)nc1Nc1cccc(S(=O)(=O)NC(C)(C)C)c1` + CC(=O)NCCCCCCNC(C)=O [hexamethylene bisacetamide], the cell mass was found to be 0.738.

Take `FC(F)(F)c1ccc(/C=C/c2nc(COc3ccc(CCCCn4ccnn4)cc3)co2)cc1` [Mubritinib] + CC(=O)NCCCCCCNC(C)=O [hexamethylene bisacetamide]: the cell mass turned out to be 0.117.

In the case of `CC(C)n1nc(-c2cc3cc(O)ccc3[nH]2)c2c(N)ncnc21` + CC(=O)NCCCCCCNC(C)=O [hexamethylene bisacetamide], the cell mass is 1.04.

Consider `CCS(=O)(=O)Nc1ccc2c(c1)/C(=C(/Nc1ccc(CN3CCCCC3)cc1)c1ccccc1)C(=O)N2` [Hesperadin] + CC(=O)NCCCCCCNC(C)=O [hexamethylene bisacetamide], for which the cell mass stood at 0.312.

`Cc1cccc(-c2[nH]c(C(C)(C)C)nc2-c2ccc3nccnc3c2)n1` + CC(=O)NCCCCCCNC(C)=O [hexamethylene bisacetamide]: the cell mass turned out to be 0.447.

As to `Cc1ccc(-n2nc(C(C)(C)C)cc2NC(=O)Nc2ccc(OCCN3CCOCC3)c3ccccc23)cc1` + CC(=O)NCCCCCCNC(C)=O [hexamethylene bisacetamide], the cell mass was 0.478.

Regarding `COCC(=O)NC/C=C/c1ccc2ncnc(Nc3ccc(Oc4ccc(C)nc4)c(C)c3)c2c1` + CC(=O)NCCCCCCNC(C)=O [hexamethylene bisacetamide], the cell mass turned out to be 0.545.

`Cc1ccc(NC(=O)c2ccc(CN3CCN(C)CC3)cc2)cc1Nc1nccc(-c2cccnc2)n1` [Imatinib(STI571)] + CC(=O)NCCCCCCNC(C)=O [hexamethylene bisacetamide]: the cell mass is 0.656.

In the case of `C=CC(=O)N1CCC[C@@H](n2nc(-c3ccc(Oc4ccccc4)cc3)c3c(N)ncnc32)C1` + CC(=O)NCCCCCCNC(C)=O [hexamethylene bisacetamide], the cell mass came out at 0.693.

Regarding `CCOc1cc2ncc(C#N)c(Nc3ccc(OCc4ccccn4)c(Cl)c3)c2cc1NC(=O)/C=C/CN(C)C` [Neratinib] + CC(=O)NCCCCCCNC(C)=O [hexamethylene bisacetamide], the cell mass was determined as 0.734.

As for `Nc1nc2[nH]cc(CCc3ccc(C(=O)N[C@@H](CCC(=O)O)C(=O)O)cc3)c2c(=O)[nH]1` + CC(=O)NCCCCCCNC(C)=O [hexamethylene bisacetamide], the cell mass came out at 0.345.

For the molecule `COc1ncc(-c2ccc3nccc(-c4ccnnc4)c3c2)cc1NS(=O)(=O)c1ccc(F)cc1F` + CC(=O)NCCCCCCNC(C)=O [hexamethylene bisacetamide], the cell mass came to 0.399.

As for `NC(=O)Nc1cc(-c2cccc(F)c2)sc1C(=O)N[C@H]1CCCNC1` + CC(=O)NCCCCCCNC(C)=O [hexamethylene bisacetamide], the cell mass worked out at 0.252.
